At least one compound was matched to its structure with a doubt left.
Columns and labels:
[1] = cited from earlier work
B16M-F10 = assay: Survival of mice carrying B16M-F10 metastases; assay type: in vivo; settings: B16M-F10 control cells; daily i.v. administration
Experimental: Hepatic metastases were induced by i.v. inoculations (portal vein), in anesthetized mice (Nembutal, 50 mg/kg i.p.), of 4×10^5 viable B16M-F10 cells suspended in 0.2 ml of DMEM. The mice were sacrificed by cervical dislocation 10 days after inoculation. The livers were fixed by immersion for 24 hours at 22° C. in 10% formaldehyde in PBS (pH 7.4), and were subsequently embedded in paraffin. The density of metastases (average number of foci/100 mm^3 of liver detected in fifteen sections of 10×10 mm^2 per liver) and the volume of metastases (average percentage of liver volume occupied by metastases) were determined as described previously (22).
This methodology makes it possible for the effect of PTER and QUER to be studied in vivo. […] The number of adhering cells shown in the table was calculated at 60 minutes postinjection (no significant differences were found when the measurements were effected at 30, 120, 180, 240 or 360 minutes postinjection, data not shown). The number of intact cells was calculated at 6 hours postinjection. […] The growth of metastases in the liver was evaluated as stated in the corresponding section of the description, and in this case the mice were treated daily (×10 days) with t-PTER and/or QUER (20 mg/kg of body weight) administered i.v. (the data are mean values±SD corresponding to 25 mice per group). […]

## COc1cc(/C=C/c2ccc(O)cc2)cc(OC)c1 [PTER, pterostilbene]
[1]
  potency as an antifungal agent relative to RESV: 60-100 times
B16M-F10
  effect on survival of the carrier host: neither of these compounds significantly increased the survival

— patent US8227510B2, “Combine use of pterostilbene and quercetin for the production of cancer treatment medicaments” (Universitat de Valencia, priority 2004, dated 2012)
